Each structure is given as a SMILES string. The list shows a part of the results. Shown are side measurements of this screen, not its main read-out; they come without a call. The list favours compounds with an active or inconclusive main result. The note in brackets gives the kind of curve behind each potency; many fits are weak.

This assay in a line: IkB Signaling. To be noted: ABC-DLBCL IkBa-CBG/CBR dual luciferase ratio (green luciferase fused to IkBa over red control in OCI-Ly3 lymphoma cells), 4 h; measured here: control luc red channel unless noted. In short, it runs like this:
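Luminescence ratio of IκBα-fused green versus native red beetle luciferase in OCI-Ly3 cells, 4 h post-doxycycline with compound; red signal alone, scaled from basal (0%) to zero light (-100%), flagged nonspecific or cytotoxic effects.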
For `COc1ccc(N2CCN(C(=O)CN3C(=O)CSc4c3c(C)nn4-c3ccccc3)CC2)cc1`, the AC50 (usually the concentration at which the activity in the assay is half-maximal) was 3.16 µM [rising, partial curve] [measured here: IkB-luc green channel]. Next, `CCN(CC)c1ccc(CN(C(=O)Cc2coc3ccc(C)cc23)C2CCS(=O)(=O)C2)cc1` (stereo not given): 20 µM [falling, single point]. To `O=C1CC(c2ccccc2)Sc2nc(-c3ccc(F)cc3)nn21` (stereo not given) belongs 39.8 µM [falling, single point].

Take `CCC1CN(C(=O)N2CCC(C(=O)NCCc3ccccc3C)CC2)c2ccccc2O1` (stereo not given): the AC50 was 12.6 µM [falling, partial curve]. As to `COc1ccc(C(=O)Nc2cc(C(C)C)c(O)c(S(=O)(=O)c3ccc(Cl)cc3)c2C)cc1`, the AC50 is 5.01 µM [falling, partial curve]. Next, `COc1ccc(-c2nc3cc(C(C)C)ccc3o2)cc1NC(=O)COc1ccc(C)cc1C`: 15.8 µM [falling, partial curve]; `O=C(CSCc1cccc(F)c1)N1CCN(c2ccccc2)CC1`: 31.6 µM [falling, single point]; `O=C(Cn1c(=O)c2ccccc2n(CC(=O)Nc2ccc(F)cc2F)c1=O)NCCc1ccccc1`: 1.58 µM [falling, full curve]. Turning to `CCN(C(=O)c1cc2c(=O)oc3ccc(C)cc3c2s1)c1cc(OC)ccc1OC`, the AC50 was 12.6 µM [falling, single point]. With `Cn1cc(C(=O)N2CCN(c3cccc(C(F)(F)F)c3)CC2)c2c3ccccc3n(C)c2c1=O`, the AC50 was 20 µM [falling, single point]. For the molecule `CC(=O)Nc1ccc(NC(=O)Cn2nc(C(=O)Nc3ccc(C)cc3)ccc2=O)cc1`, the AC50 is 3.16 µM [rising, partial curve, poor fit]. In the case of `CCN(CC)S(=O)(=O)c1ccc2oc(SCc3ccc(F)cc3)nc2c1`, the AC50 is 20 µM [falling, partial curve]. To `CCCOc1ccc(Oc2nc(NCC(C)C)nc(N3CCOCC3)n2)nn1` belongs 12.6 µM [falling, partial curve]; to `COc1ccccc1N1CCN(c2nc(-c3ccc(C)cc3)nc3ccccc23)CC1`, 39.8 µM [falling, single point]; to `COc1cccc(NC(=O)C2CCCN(S(=O)(=O)c3ccc4[nH]c(=O)ccc4c3)C2)c1` (stereo not given), 15.8 µM [falling, partial curve]. As for `CCCCn1c(=N)n(CC(O)COc2ccc(C)cc2)c2ccccc21` (stereo not given), the AC50 is 12.6 µM [falling, partial curve]. Turning to `CC(C)Nc1ncnc2c1cnn2-c1ccc(Cl)cc1`, the AC50 was 10 µM [falling, partial curve]. To `COc1ccc(N2CC(NC(=O)c3ccc4c(c3)OCO4)CC2=O)cc1` (stereo not given) belongs 0.1 µM [rising, full curve, poor fit]; to `COC(=O)Cn1c(=O)c2c(nc3n2CCN3c2ccc(F)cc2)n(C)c1=O`, 15.8 µM [falling, partial curve]; to `CSc1ccc(CNC(=O)c2ccc(NC(=O)c3nsc4ccccc34)cc2)cc1`, 0.158 µM [falling, full curve].

Take `CCOC(=O)C1CCCN(Cc2nc(N)nc(Nc3ccc(Cl)cc3)n2)C1` (stereo not given): the AC50 was 10 µM [falling, partial curve]. Next, `Nc1c(C(=O)Nc2ccccc2)nnn1Cc1ccc(F)cc1Cl`: 0.398 µM [rising, full curve]. As for `COc1ccc(CNC(=O)c2ccc(=O)oc2)cc1OC`, the concentration at half-maximal activity (AC50) was 631 nM [rising, partial curve] [measured here: IkB-luc green channel].

With `CCOc1ccccc1C(=O)Nc1nc2c(s1)CC(C)CC2` (stereo not given), the AC50 was 20 µM [falling, partial curve].

As to `COc1cc(NC(=O)COCc2cc(-c3ccc(F)cc3)on2)cc(OC)c1OC`, the half-maximal activity concentration (AC50) is 31.6 µM [falling, single point]. Next, `COc1cc(-c2nnc(SCc3c(F)cccc3Cl)o2)cc(OC)c1OC`: 7.94 µM [falling, full curve, poor fit]. In the case of `Cc1nn(C(C)(C)C)c(OC(=O)C(C)(C)C)c1Sc1ccccc1`, the AC50 is 10 µM [falling, partial curve]. `Clc1ccc(OCc2nnc(SCc3nc4ccccc4[nH]3)n2Cc2ccco2)cc1`: the AC50 was 7.94 µM [falling, partial curve]. To `Cc1ccsc1CN(C(=O)c1oc2cc(Br)ccc2c1C)C1CCS(=O)(=O)C1` (stereo not given) belongs 20 µM [falling, single point]; to `Cc1cc(C(=O)Nc2ccc(C(C)C)cc2)c2c(C)nn(-c3ccccc3)c2n1`, 7.94 µM [rising, partial curve].

For the molecule `CN(C)CCCN(C(=O)c1ccc2c(c1)OCCO2)c1nc2ccccc2s1`, the half-maximal activity concentration (AC50) was 15.8 µM [falling, partial curve]. To `COc1cccc(CNC(=O)CSc2c3c(nc4cc(Cl)ccc24)CCCC3)c1` belongs 39.8 µM [falling, single point]; to `CCc1cccc(NC2c3ccccc3C(=O)N2c2ccc(C)cn2)c1` (stereo not given), 15.8 µM [falling, partial curve]; to `Cc1cccc2c(=O)cc(CSc3ccccc3NC(=O)c3cccc(F)c3)[nH]c12`, 39.8 µM [falling, partial curve]. Next, `COc1ccc(NC(=O)Cn2cnc3c(oc4ccccc43)c2=O)cc1OC`: 31.6 µM [falling, single point]; `N#C/C(=C\c1ccc[nH]1)Sc1nc2ccccc2s1`: 25.1 µM [falling, single point]. Next, `CCCOc1c(Cl)cc(C(=O)N(Cc2cccc(OC)c2)C2CCS(=O)(=O)C2)cc1Cl` (stereo not given): 31.6 µM [falling, partial curve]. As for `CCOc1ccc(NC(=O)c2cnc(N3CCCCC3)c3ccccc23)cc1`, the AC50 was 6.31 µM [falling, partial curve]. To `CCOC(=O)c1c(-c2ccccc2)csc1NC(=O)c1cc(-c2ccc(F)cc2)on1` belongs 25.1 µM [falling, partial curve]; to `CN(c1ccccc1)S(=O)(=O)c1nnc(NC(=O)c2ccccc2)s1`, 0.0126 µM [rising, full curve].

For the origin of these results see PubChem BioAssay AID445 (National Center for Advancing Translational Sciences (NCATS), 2006).
